Taken from: PubChem BioAssay AID1259308 (NCATS, 2017)
Test: 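Candidate targets for better recombinant protein yield in mammalian cells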 (primary screen). Cell system: human HEK293 embryonic kidney cells stably expressing firefly luciferase (HEK-CMV-Luc2-Hygro). Reagent: single siRNA against human genes, 0.8 pmol siRNA per well. Timing: 72 h. Detection: 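Reporter luminescence and viable-cell signal on separate replicate plates, given as percent of non-targeting control and median/MAD z-scores, plus per-cell luciferase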. Direction: total luciferase, z-score and total luciferase, % of control: higher = more reporter protein produced. Call rule: 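An siRNA counts as active if its total luciferase robust z-score exceeds 3; genes with two or more such siRNAs out of three were retested with fresh siRNAs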. Calls: active = raised luciferase; inactive = no rise.
Shown is an unselected part of about 59,000 reagents. About 1,510 of them (2.6%) count as active. 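Calls use total luciferase alone and ignore viability, so some active siRNAs may act by altering cell number.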 Entries without a mark were called inactive. Reagents against one gene are numbered here. Further read-outs or replicates are left out here.

gene knocked down,siRNA no.,"total luciferase, z-score","total luciferase, % of control"
PKN3,1,-0.72,67.6
PKN3,2,1.63,114
PKN3,3,0.669,95.2
ELN,1,-0.41,73.7
ELN,2,-0.237,77.2
ELN,3,-0.0454,81
KLK8,1,0.431,90.5
KLK8,2,1.61,114
KLK8,3,-1.08,60.4
TPTE2P1,1,2.21,126
TPTE2P1,2,-0.192,78.1
TPTE2P1,3,1.21,106
OR14I1,1,0.827,98.3
OR14I1,2,-0.369,74.5
OR14I1,3,-0.346,75
MCFD2P1,1,-0.722,67.5
MCFD2P1,2,-1.05,60.9
MCFD2P1,3,-0.13,79.3
C8orf82,1,-0.472,72.5
C8orf82,2,0.359,89
C8orf82,3,-0.0821,80.3
AP2S1,1,2.07,123
AP2S1,2,-0.237,77.2
AP2S1,3,0.368,89.2
TAS2R10,1,-0.321,75.5
TAS2R10,2,-1.42,53.6
TAS2R10,3,-0.16,78.7
PRR25,1,-0.533,71.3
PRR25,2,1.23,106
PRR25,3,0.524,92.3
VNN3P,1,-0.772,66.5
VNN3P,2,-0.2,77.9
VNN3P,3,-0.123,79.4
XRN1,1,2.16,125
XRN1,2,-0.756,66.8
XRN1,3,0.558,93
MAPKAPK5,1,-1.87,44.7
MAPKAPK5,2,0.382,89.5
MAPKAPK5,3,3.37 (active),149
KIAA0232,1,-1.49,52.3
KIAA0232,2,1.2,106
KIAA0232,3,-0.389,74.1
ALOX12,1,0.359,89
ALOX12,2,2.78,137
ALOX12,3,-0.0268,81.4

Next part; the last 4 above are carried over.
gene knocked down,siRNA no.,"total luciferase, z-score","total luciferase, % of control"
KIAA0232,3,-0.389,74.1
ALOX12,1,0.359,89
ALOX12,2,2.78,137
ALOX12,3,-0.0268,81.4
ASF1A,1,0.689,95.6
ASF1A,2,6.03 (active),202
ASF1A,3,2.48,131
LOC730110,1,-0.501,71.9
LOC730110,2,-0.629,69.4
LOC730110,3,0.245,86.8
MTHFSD,1,3.11 (active),144
MTHFSD,2,0.321,88.3
MTHFSD,3,0.581,93.4
RAI1,1,0.582,93.5
RAI1,2,-0.398,74
RAI1,3,1.17,105
SNTG2,1,-0.404,73.9
SNTG2,2,0.217,86.2
SNTG2,3,-0.522,71.5
RPL13AP6,1,-2.58,30.6
RPL13AP6,2,1.97,121
RPL13AP6,3,-0.067,80.6
S100A1,1,1.53,112
S100A1,2,-2.11,39.8
S100A1,3,0.609,94
FAAH2,1,-0.367,74.6
FAAH2,2,0.954,101
FAAH2,3,0.753,96.9
MRGPRE,1,2.11,124
MRGPRE,2,-1.97,42.7
MRGPRE,3,1.8,118
RRM2,1,0.499,91.8
RRM2,2,-1.95,43.2
RRM2,3,-0.275,76.4
RRM2,4,4.53 (active),172
RRM2,5,0.193,85.7
RRM2,6,0.0386,82.7
